Measurements: PMC12483151 (JACS Au, 2025)

Test: general procedure: Fmoc solid-phase peptide synthesis; Rink amide resin; DIC/HOBt
Conditions: late stage modification step

Substance	step yield (on peptide 2a)	step yield (isolated yield)
PEPTIDE1{[ac].L.I.L.[K(Py)].P.F.[am]}$$$$V2.0	22% yield	
PEPTIDE1{[ac].Y.L.D.[K(Py)].V.L.T.Q.[am]}$$$$V2.0		47%

HELM strings list residues between dots; [ac] is acetyl, [am] amide, other brackets name non-standard units.
